Experimental data: PubChem BioAssay AID686937 (Drosophila RNAi Screening Center, 2013)

Aim: 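Genes in the fly needed for secretion of protein constitutively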 (primary screen)
Cell system: Drosophila S2 cells expressing secreted horseradish peroxidase
Knock-down reagent: long dsRNA against Drosophila genes
Timing: about 5.5 days (5 days dsRNA, then 12 h reporter induction)
Treatment: reporter expression induced after 5 days of dsRNA, read 12 h later; inducer not stated
Detection: 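Chemiluminescent measurement of peroxidase in the medium 12 h after reporter induction, following 5 days of dsRNA, given as a z-score per plate; higher means more secretion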
Scale: z-score: higher = more reporter secreted into medium
The screen tested about 23,000 reagents; this is a random part of those with a known target gene and a result. 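Reduced-secretion tags in replicate 1 do not always agree with the z-scores; no criterion for assigning the tags was given.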 The record does not give: the amount of reagent.

| target gene | amplicon | z-score, replicate 1 | z-score, replicate 2 | z-score, replicate 3 | z-score, replicate 4 | phenotype, replicate 1 |
| --- | --- | --- | --- | --- | --- | --- |
| CG7139 | DRSC11611 | 0.33 | 0.4 | – | – | – |
| RpL29 (Ribosomal protein L29) | DRSC04650 | 0.09 | 0.26 | – | – | – |
| Lint-O (L(3)mbt interactor in ovarian somatic cells) | DRSC18468 | 0.11 | 0.33 | – | – | – |
| Art1 (Arginine methyltransferase 1) | DRSC16063 | 0.42 | 0.36 | – | – | – |
| CG6693 | DRSC16097 | 0.27 | 0.35 | – | – | – |
| CG4998 | DRSC10466 | -0.03 | 0.02 | – | – | – |
| CG4998 | DRSC22911 | 1.7 | 0.29 | – | – | – |
| CG15236 | DRSC04970 | 0.41 | 0.39 | – | – | – |
| CG15236 | DRSC21396 | 2.04 | 2.02 | – | – | – |
| sbr (small bristles) | DRSC19770 | -3.26 | -2.72 | – | – | reduced secretion |
| sbr (small bristles) | DRSC20368 | -2.8 | -2.8 | – | – | reduced secretion |
| Tps1 (Trehalose-6-phosphate synthase 1) | DRSC00269 | 0.19 | 0.27 | – | – | – |
| Nepl16 (Neprilysin-like 16) | DRSC14650 | 0.09 | 0.23 | – | – | – |

Next part; the last 3 above are carried over.
| target gene | amplicon | z-score, replicate 1 | z-score, replicate 2 | z-score, replicate 3 | z-score, replicate 4 | phenotype, replicate 1 |
| --- | --- | --- | --- | --- | --- | --- |
| sbr (small bristles) | DRSC20368 | -2.8 | -2.8 | – | – | reduced secretion |
| Tps1 (Trehalose-6-phosphate synthase 1) | DRSC00269 | 0.19 | 0.27 | – | – | – |
| Nepl16 (Neprilysin-like 16) | DRSC14650 | 0.09 | 0.23 | – | – | – |
| Cht12 (Chitinase 12) | DRSC03844 | -0.38 | 0.05 | – | – | – |
| B-H1 (BarH1) | DRSC19334 | 0.51 | 0.22 | 0.01 | -0.27 | reduced secretion |
| B-H1 (BarH1) | DRSC21922 | -0.11 | 0.22 | – | – | – |
| TbCMF46 | DRSC02221 | 0.08 | -0.12 | – | – | – |
| CG6938 | DRSC10752 | 0.57 | 0.12 | – | – | – |
| CG11664 | DRSC18650 | 0.18 | 0.33 | – | – | – |
| Obp50d (Odorant-binding protein 50d) | DRSC05483 | -0.15 | 0.16 | – | – | – |
| AP-1-2beta (Adaptor Protein complex 1/2, beta subunit) | DRSC19336 | -1.58 | 0.02 | – | – | – |
| CG31752 | DRSC22599 | -0.49 | -0.29 | – | – | – |
| CG17344 | DRSC02607 | 0.17 | 0.25 | – | – | – |
| eca (eclair) | DRSC22290 | 0.07 | 0.05 | – | – | – |
| Mt2 (Methyltransferase 2) | DRSC03374 | 0.2 | 0.42 | – | – | – |
| CstF64 (Cleavage stimulation factor 64 kD subunit) | DRSC16616 | -0.42 | 0.15 | – | – | – |
| CG13630 | DRSC14631 | 0.44 | 0.47 | – | – | – |
| wat (waterproof) | DRSC14854 | 0.47 | 0.52 | – | – | – |
| CG3500 | DRSC04379 | -0.25 | -0.29 | – | – | – |
| l(1)G0289 (lethal (1) G0289) | DRSC18215 | 0.41 | 0.43 | – | – | – |
| CG7916 | DRSC01901 | 0.07 | 0.32 | – | – | – |
| CG15653 | DRSC04244 | 0.23 | 0.32 | – | – | – |
| CG4744 | DRSC06887 | 0.27 | 0.27 | – | – | – |
